# Data as given in PubChem BioAssay AID504774 (Drosophila RNAi Screening Center, 2011).
# Assay: 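Fly genes whose loss alters survival after alkylation damage to DNA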 (primary screen)
# System: Drosophila Kc167 cells
# Reagent: long dsRNA against Drosophila genes, about 0.25 µg dsRNA per well
# Timing: about 6 days: 3 days knock-down, then 3 days with or without MMS
# Challenge: methyl methanesulphonate 0.004% (w/v) for 3 days after knock-down
# Measured: 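ATP-dependent luminescence as a measure of live cells in MMS-exposed wells, quantile normalised within each plate, with replicate values also given as a mean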
# Reading the numbers: mean viability with MMS and viability with MMS: higher = more surviving cells after MMS
# In all, the deposit lists about 23,000 reagents; this is a random part of those that have a named target and a result. 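Values are quantile-normalised luminescence on an arbitrary scale; higher means more cells surviving MMS.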 A plus sign joins genes that one reagent is predicted to hit.
predicted target,amplicon,mean viability with MMS,"viability with MMS, replicate 1","viability with MMS, replicate 2"
CG33253,DRSC19547,3.71e6,4.18e6,4.15e6
CG33253,DRSC20053,3.63e6,4.03e6,4.16e6
CG18477 + CG31780,DRSC01955,3.41e6,3.81e6,3.92e6
CG15710,DRSC06581,3.44e6,3.82e6,3.94e6
Cen,DRSC02704,3.36e6,3.72e6,3.69e6
Pde6,DRSC16401,3.51e6,3.97e6,3.97e6
Pde6,DRSC16402,3.66e6,4.11e6,4.21e6
Pde6,DRSC16403,3.49e6,3.98e6,3.95e6
CG7332,DRSC20038,3.59e6,4.19e6,3.99e6
Cog2,DRSC16987,3.76e6,4.47e6,4.05e6
Tre1,DRSC18726,3.60e6,4.09e6,4.07e6
eIF3e,DRSC11199,3.02e6,3.60e6,3.53e6
Jarid2,DRSC10372,3.49e6,4.02e6,3.89e6
janA,DRSC16972,3.35e6,3.72e6,3.80e6
Sc2,DRSC08162,3.56e6,4.06e6,4.02e6
CG10993,DRSC19362,3.58e6,4.06e6,4.05e6
CG5895,DRSC10554,3.52e6,4.06e6,3.91e6
CG32700,DRSC17857,3.62e6,3.58e6,4.60e6
CG32700,DRSC17858,3.42e6,3.89e6,3.89e6
SMSr,DRSC10998,3.67e6,4.09e6,4.22e6
SMSr,DRSC10999,3.69e6,4.25e6,4.12e6
CG8750,DRSC11037,3.48e6,3.82e6,4.06e6
CG32195,DRSC09533,3.50e6,4.02e6,3.93e6

Continued; the last 8 above are carried over.
predicted target,amplicon,mean viability with MMS,"viability with MMS, replicate 1","viability with MMS, replicate 2"
CG10993,DRSC19362,3.58e6,4.06e6,4.05e6
CG5895,DRSC10554,3.52e6,4.06e6,3.91e6
CG32700,DRSC17857,3.62e6,3.58e6,4.60e6
CG32700,DRSC17858,3.42e6,3.89e6,3.89e6
SMSr,DRSC10998,3.67e6,4.09e6,4.22e6
SMSr,DRSC10999,3.69e6,4.25e6,4.12e6
CG8750,DRSC11037,3.48e6,3.82e6,4.06e6
CG32195,DRSC09533,3.50e6,4.02e6,3.93e6
GstD3,DRSC15571,3.51e6,3.95e6,4.02e6
YME1L,DRSC04378,3.71e6,4.19e6,4.28e6
eIF3g2,DRSC14275,3.57e6,4.23e6,3.85e6
Rh7,DRSC10529,3.52e6,3.90e6,4.07e6
Icmt,DRSC09834,3.63e6,4.06e6,4.12e6
Srp54,DRSC03442,3.00e6,3.29e6,3.47e6
Srp72,DRSC15800,3.87e6,4.21e6,4.42e6
CG6766,DRSC02991,3.59e6,4.01e6,3.81e6
CG34305,DRSC11995,3.76e6,4.26e6,4.22e6
CG10898,DRSC14279,3.62e6,4.16e6,4.07e6
Tsp42Ek,DRSC06187,3.68e6,4.14e6,4.11e6
ppk18,DRSC02216,3.56e6,4.08e6,4.00e6
CG12920,DRSC06234,3.70e6,4.20e6,4.07e6
witty,DRSC02378,3.61e6,4.17e6,4.03e6
witty,DRSC21650,3.48e6,4.02e6,3.91e6
Pvf1,DRSC20024,3.68e6,4.20e6,4.19e6
CG5071,DRSC15710,3.52e6,3.95e6,4.02e6
CG5071,DRSC22570,3.71e6,4.12e6,4.17e6
smog,DRSC00334,3.62e6,4.17e6,4.00e6
smog,DRSC00335,3.09e6,3.46e6,3.41e6
smog,DRSC23053,2.99e6,3.24e6,3.38e6
CG10738,DRSC09792,3.46e6,3.88e6,3.97e6
CG34370,DRSC03913,3.60e6,4.06e6,4.10e6
CG34370,DRSC04142,3.52e6,4.03e6,3.96e6
CG34370,DRSC04143,3.56e6,4.03e6,4.04e6
CG34370,DRSC04144,3.50e6,3.95e6,3.97e6
CG31777,DRSC00201,3.65e6,4.09e6,4.19e6
CAH3,DRSC17776,3.48e6,3.92e6,3.99e6
CG4853,DRSC06898,3.73e6,4.24e6,4.21e6
EMC6,DRSC14386,3.60e6,4.07e6,4.10e6
CG32189,DRSC09511,3.67e6,4.38e6,3.91e6
slif,DRSC11635,3.65e6,3.99e6,4.26e6
mab-21,DRSC18791,3.87e6,4.21e6,4.68e6
CG34150,DRSC13689,3.54e6,4.03e6,4.01e6
CR42745 (retired record),DRSC13756,3.46e6,3.92e6,3.92e6
msk,DRSC11340,3.51e6,3.97e6,3.99e6
Sod3,DRSC07324,3.74e6,4.26e6,4.23e6
CG15293,DRSC01919,3.62e6,4.15e6,4.04e6
Nt5c,DRSC06711,3.69e6,4.25e6,4.13e6
Plzf,DRSC02994,3.55e6,3.99e6,4.07e6
brwl,DRSC01080,3.10e6,3.54e6,3.55e6
brwl,DRSC02729,3.56e6,4.33e6,3.77e6
CG8036,DRSC16366,3.52e6,4.01e6,4.00e6
Tom40,DRSC18796,3.29e6,3.70e6,3.73e6
CG12964,DRSC06266,3.18e6,4.03e6,4.17e6
CG12964,DRSC23210,3.35e6,3.95e6,3.65e6
